Results are given in words; binding and its absence hold for the method and conditions named. A result given as binding can be weak or reduced; the word gives no strength. Sequences can lack the tags named with a protein.
Molecular target: T1, full-length FBF-2 fused to the Gal4 DNA-binding domain (C. elegans) (UniProt Q09312)
T1 sequence: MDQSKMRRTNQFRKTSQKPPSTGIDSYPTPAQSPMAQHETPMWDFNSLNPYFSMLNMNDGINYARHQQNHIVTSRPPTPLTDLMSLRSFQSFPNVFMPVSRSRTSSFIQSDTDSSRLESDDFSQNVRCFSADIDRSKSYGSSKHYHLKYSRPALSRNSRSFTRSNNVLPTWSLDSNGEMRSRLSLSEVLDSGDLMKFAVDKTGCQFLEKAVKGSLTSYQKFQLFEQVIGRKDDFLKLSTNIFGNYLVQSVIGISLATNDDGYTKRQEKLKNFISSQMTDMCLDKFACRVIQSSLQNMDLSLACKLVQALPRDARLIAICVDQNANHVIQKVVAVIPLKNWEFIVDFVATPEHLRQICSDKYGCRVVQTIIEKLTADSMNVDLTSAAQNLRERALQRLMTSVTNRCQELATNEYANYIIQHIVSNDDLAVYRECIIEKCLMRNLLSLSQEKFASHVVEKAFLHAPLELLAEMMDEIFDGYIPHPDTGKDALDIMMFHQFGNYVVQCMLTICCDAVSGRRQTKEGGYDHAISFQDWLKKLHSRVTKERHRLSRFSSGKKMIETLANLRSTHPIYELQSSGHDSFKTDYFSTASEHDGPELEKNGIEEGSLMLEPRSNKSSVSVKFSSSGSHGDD
Experiment: two-hybrid

binding: binds
Substance: SYGL-1 (prey of the two-hybrid library) (C. elegans)

Source: publication doi:10.1101/2022.06.22.497213
